PubChem BioAssay AID504791 | Drosophila RNAi Screening Center | 2011

Assay: 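Genes of the fly required for silencing by miRNA, siRNA or endo-siRNA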 (primary screen)
System: Drosophila S2-derived reporter cells
Knock-down reagent: long dsRNA against Drosophila genes, about 150-250 ng dsRNA per well (siRNA assay); about 80-120 ng (miRNA assay)
Timing: about 5 days (siRNA assay); about 4 days (miRNA assay)
Challenge: copper sulfate induction of reporters: 25 µM (siRNA assay); 200 mM stated (miRNA assay), 1-2 days before reading
Read-out: 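Per-well ratio of Renilla over firefly light, expressed relative to that plate's average ratio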
Hit rule: 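First-pass picks had plate-scaled ratios over 1.5 for the siRNA assay, over 1.6 for the miRNA assay, or under 0.6; two distinct dsRNAs had to score alike on retest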
The deposit covers about 23,000 reagents; shown is an unselected part of those with a known target gene and a result. Of all reagents, 199 (0.86%) were called active. 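Plate-scaled ratios behind the calls are not deposited; printed light signals are raw; many rows marked increased or decreased are still called inactive.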 Reagents against one gene are numbered here. Not given: the direction of the score.

stable assay Renilla, run 1 (luminescence)	stable assay firefly, run 1 (luminescence)	call	gene	reagent
5183	5.12e5	inactive	Chchd2 (Coiled-coil-helix-coiled-coil-helix domain containing 2)	1
5895	5.35e5	inactive	CG6324	1
8638	5.56e5	inactive	CG2972	1
6558	4.02e5	inactive	CG4553	1
4895	2.33e5	inactive	achi (achintya)	1
6704	3.25e5	inactive	CG16813	1
7750	4.61e5	inactive	ND-B12 (NADH dehydrogenase (ubiquinone) B12 subunit)	1
9745	4.58e5	inactive	CG6441	1
5728	3.55e5	inactive	Vps13B (Vacuolar protein sorting 13B)	1
8890	3.06e5	inactive	SCOT (Succinyl-CoA:3-ketoacid CoA transferase)	1
4504	3.32e5	inactive	ND-ASHI (NADH dehydrogenase (ubiquinone) ASHI subunit)	1
7338	4.08e5	inactive	Ccdc39 (Coiled-coil domain containing protein 39)	1
4704	3.42e5	inactive	dpr17 (defective proboscis extension response 17)	1
4251	1.71e5	inactive	dpr17 (defective proboscis extension response 17)	2
5566	3.87e5	inactive	dpr17 (defective proboscis extension response 17)	3
6638	3.22e5	inactive	sav (salvador)	1
6810	2.84e5	inactive	sav (salvador)	2
6695	3.37e5	inactive	CG16986	1
8051	4.34e5	inactive	Art3 (Arginine methyltransferase 3)	1

Next part; the last 2 above are carried over.
stable assay Renilla, run 1 (luminescence)	stable assay firefly, run 1 (luminescence)	call	gene	reagent
6695	3.37e5	inactive	CG16986	1
8051	4.34e5	inactive	Art3 (Arginine methyltransferase 3)	1
7451	4.28e5	inactive	CG13044	1
6974	2.96e5	inactive	CG31097	1
5124	3.13e5	inactive	Setd3 (SET domain containing 3)	1
5376	2.78e5	inactive	Setd3 (SET domain containing 3)	2
5108	6.01e5	inactive	CR31427 (pseudo)	1
7182	4.21e5	inactive	esg (escargot)	1
7436	3.84e5	inactive	CG4950	1
7095	3.79e5	inactive	CG13409	1
7662	4.34e5	inactive	Ir52a (Ionotropic receptor 52a)	1
5919	4.35e5	inactive	CG32590	1
8168	3.48e5	inactive	CG7448 (retired record)	1
6415	5.77e5	inactive	CG7448 (retired record)	2
8725	4.74e5	inactive	Vps28 (Vacuolar protein sorting 28)	1
5671	4.60e5	inactive	CG14829	1
8651	4.61e5	inactive	aos (argos)	1
